No constants are given. Whether binding was seen depends on the method and setting. In cells and extracts the contact can be indirect. Some binding calls cover weakened binding; strength is not graded here.
Target: NF-κB p65 (mouse (endogenous in RAW 264.7)) (UniProt Q04207)
Assay: co-IP; lysate of RAW 264.7 cells (CTR, LPS 100 ng/ml 24 h, or pretreated with resveratrol 10 uM before LPS); IP with anti-NF-κB p65 or non-specific IgG overnight at 4 °C, protein A/G-sepharose, immunoblot for NF-κB p65 and NLRP3

Sequences of proteins named here, by UniProt entry; tags and fusion partners are left off.
UniProt Q04207: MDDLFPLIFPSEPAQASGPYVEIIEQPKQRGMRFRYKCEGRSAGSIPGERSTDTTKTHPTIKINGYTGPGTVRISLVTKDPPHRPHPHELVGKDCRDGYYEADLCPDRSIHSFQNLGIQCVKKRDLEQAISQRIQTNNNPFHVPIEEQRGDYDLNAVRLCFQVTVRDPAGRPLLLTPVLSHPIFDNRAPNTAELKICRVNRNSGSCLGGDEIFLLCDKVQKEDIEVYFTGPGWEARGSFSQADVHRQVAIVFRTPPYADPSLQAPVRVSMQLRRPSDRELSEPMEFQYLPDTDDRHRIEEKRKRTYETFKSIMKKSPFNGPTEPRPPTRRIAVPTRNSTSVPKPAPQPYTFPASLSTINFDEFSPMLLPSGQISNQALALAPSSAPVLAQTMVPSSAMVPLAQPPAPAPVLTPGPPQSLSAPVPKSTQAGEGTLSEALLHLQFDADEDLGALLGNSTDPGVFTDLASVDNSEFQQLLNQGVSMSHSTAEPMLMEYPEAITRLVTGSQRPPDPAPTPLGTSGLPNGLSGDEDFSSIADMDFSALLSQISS
UniProt Q8R4B8: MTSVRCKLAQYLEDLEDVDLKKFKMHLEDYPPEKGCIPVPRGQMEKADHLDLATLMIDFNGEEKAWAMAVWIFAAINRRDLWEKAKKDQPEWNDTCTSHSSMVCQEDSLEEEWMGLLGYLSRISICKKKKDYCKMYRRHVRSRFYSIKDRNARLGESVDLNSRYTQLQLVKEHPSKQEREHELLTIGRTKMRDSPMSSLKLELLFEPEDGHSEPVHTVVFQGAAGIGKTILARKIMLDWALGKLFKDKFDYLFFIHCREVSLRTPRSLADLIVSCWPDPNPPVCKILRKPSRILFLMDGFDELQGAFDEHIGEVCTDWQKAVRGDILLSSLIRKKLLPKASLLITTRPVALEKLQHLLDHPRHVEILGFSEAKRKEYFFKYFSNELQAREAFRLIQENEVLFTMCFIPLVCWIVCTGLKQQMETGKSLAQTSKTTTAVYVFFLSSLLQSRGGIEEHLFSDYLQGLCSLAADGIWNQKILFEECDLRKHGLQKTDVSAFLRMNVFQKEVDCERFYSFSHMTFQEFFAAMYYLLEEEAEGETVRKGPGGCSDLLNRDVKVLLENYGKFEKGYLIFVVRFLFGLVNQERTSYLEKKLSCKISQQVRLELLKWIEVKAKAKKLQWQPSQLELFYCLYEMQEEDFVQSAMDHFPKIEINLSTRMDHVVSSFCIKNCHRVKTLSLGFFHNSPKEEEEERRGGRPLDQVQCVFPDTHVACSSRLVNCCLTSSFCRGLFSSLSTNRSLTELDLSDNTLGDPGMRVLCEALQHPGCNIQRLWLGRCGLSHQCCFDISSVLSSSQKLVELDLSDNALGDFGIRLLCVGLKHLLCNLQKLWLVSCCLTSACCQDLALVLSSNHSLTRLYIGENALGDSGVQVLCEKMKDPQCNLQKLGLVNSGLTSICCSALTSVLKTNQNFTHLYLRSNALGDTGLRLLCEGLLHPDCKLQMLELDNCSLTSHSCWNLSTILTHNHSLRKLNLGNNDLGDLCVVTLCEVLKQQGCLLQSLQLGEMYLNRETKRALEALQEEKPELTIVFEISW

binding: binds
Substance: NLRP3 (from UniProt Q8R4B8 1-1033)

— PMC10087625
